Measurements from the supplement of paper PMC12823440, “Inhibitors supercharge kinase turnover through native proteolytic circuits” (Nature, 2025).
The list shows a part of the results. Hit calls seldom repeat between salt and free forms of one compound.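 Kinases, fused to nanoluciferase, were expressed in K562 cells; luminescence was measured every 4 h from 2 to 18 h as percent of control (DMSO = 100%, positive control = 0%). A time point is decreased if signal falls significantly (2 sigma). Hits were called by the authors by a rule that is not shown; the count of time points alone does not decide it.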

By UniProt entry, the sequences of proteins in these tests, tags left out. Where a name states a change or a piece, a line headed by the entry shows the natural chain unless it says otherwise.
UniProt P51451: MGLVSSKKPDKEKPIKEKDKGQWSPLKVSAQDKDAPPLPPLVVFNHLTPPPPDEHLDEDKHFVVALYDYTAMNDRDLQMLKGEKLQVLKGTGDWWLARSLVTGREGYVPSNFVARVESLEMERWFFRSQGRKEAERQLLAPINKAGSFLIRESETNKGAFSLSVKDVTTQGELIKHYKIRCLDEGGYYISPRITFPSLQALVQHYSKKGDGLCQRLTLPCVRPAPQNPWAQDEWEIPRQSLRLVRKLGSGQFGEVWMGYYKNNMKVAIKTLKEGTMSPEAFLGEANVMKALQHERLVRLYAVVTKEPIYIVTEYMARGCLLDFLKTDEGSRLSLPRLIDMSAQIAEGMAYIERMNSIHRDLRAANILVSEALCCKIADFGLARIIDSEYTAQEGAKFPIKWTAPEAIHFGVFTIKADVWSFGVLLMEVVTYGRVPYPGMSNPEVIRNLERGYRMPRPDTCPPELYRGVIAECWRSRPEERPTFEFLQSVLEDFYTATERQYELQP

These compounds were tested against BLK (UniProt P51451) (assay: kinase-Nluc reporter destabilization hit call (1 = scored as downregulated) (binary); higher = compound decreases kinase abundance). Conditions: K562; 2-18 h.

kinase-Nluc reporter destabilization hit call, inactive:
CC(C)CCN1c2nc(Nc3cc(F)c(O)c(F)c3)ncc2N(C)C(=O)C1C (configuration not stated) (2.5 µM) 0
CC(C)=CC[C@@H](O)C1=CC(=O)c2c(O)ccc(O)c2C1=O [Shikonin] (10 µM) 0
CCC(=O)Nc1cccc(Oc2nc(Nc3ccc(N4CCN(C)CC4)cc3OC)ncc2Cl)c1 (10 µM) 0
CC(C)=CCC/C(C)=C/CC/C(C)=C/C=C/C(C)=C/C(=O)O [Peretinoin] (10 µM) 0
COc1ccc2c(Oc3ccc4c(C(=O)Nc5ccccc5N)cccc4c3)ccnc2c1 [Chiauranib] (10 µM) 0
Cc1nn(C)cc1-c1nc2c(N3CCN(Cc4ccc(Cl)cc4)CC3)c(Cl)cnc2[nH]1 (10 µM) 0
CNC(=O)c1cc2c(Oc3ccc(NC(=O)C4(C(=O)Nc5ccc(F)cc5)CC4)cc3)ccnc2cc1OC (2.5 µM) 0
O=C(Nc1cccnc1)c1cc(-c2ccnc(F)c2)ccc1OCc1ccccc1 (10 µM) 0
CN(C)c1ccc(-c2nc3ncc(Cl)c(N4CCN(CC(=O)Nc5nccs5)CC4)c3[nH]2)cc1 (2 µM) 0
Cc1cc(C(=O)NC(C)(C)C)cc(C#Cc2ccc3c4c(oc3c2)C(C)(C)c2cc(NS(C)(=O)=O)ccc2C4=O)n1 (10 µM) 0
O=C(O)c1cc(N(Cc2ccccc2O)Cc2cc(O)ccc2O)ccc1O [Lavendustin A] (10 µM) 0
C[C@@H](Nc1ncnc2[nH]c(-c3ccc(O)cc3)cc12)c1ccccc1 (2.5 µM) 0
